Measurements taken from PubChem BioAssay AID2685 (National Center for Advancing Translational Sciences (NCATS), 2010).
Some of the results follow. These are further read-outs of the screen, such as a control signal, another cell line or another target. No call is given for them. Compounds called inactive in the main read-out are mostly missing here. Words in brackets tell the shape of the fitted curve; partial curves, single points and poor fits give uncertain potencies.

Assay: qHTS Assay for Lipid Storage Modulators in Drosophila S3 Cells;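 for cell number change: cells counted by Cell Tracker Red CMTPX staining in the red channel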
Conditions: BODIPY lipid droplet fluorescence, 18-24 h; for cell number change: measured here: cell count max response, cells fed with added oleic acid
Outline: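 Laser-scanning cytometry quantifies lipid droplet accumulation (500–530 nm total intensity; droplet/cell object ratio) in oleic acid-fed (400 uM added) Drosophila S3 cells treated with a concentration series. 20 uM Triacsin C defined 100% inhibition.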

[1] = measured here: lipid fluorescence (Fed channel) AC50, cells fed with added oleic acid
[2] = measured here: cell number channel AC50, cells fed with added oleic acid

Structure (SMILES) | cell number change [%] | AC50 [1] | AC50 [2]
COc1ccc(C(=O)Nc2ccc3oc(-c4cccnc4)nc3c2)cc1OC | -16.6 | 0.092 µM [falling, full curve, poor fit] | 
O=C(/C=C/c1cccc([N+](=O)[O-])c1)N1CCN(c2ccccn2)CC1 | -23.8 | 6.51 µM [rising, single point] | 
COc1ccc(S(=O)(=O)Cc2ccc(C(=O)N3CCN(C4CCCCC4)CC3)o2)cc1 | -13.4 | 0.092 µM [falling, full curve, poor fit] | 
CC(OC(=O)c1cccc(S(=O)(=O)Nc2ccccc2F)c1)C(=O)NCc1ccc2c(c1)OCO2 (stereo not given) |  | 10.3 µM [rising, partial curve, poor fit] | 
CC1CCN(c2ccc(S(=O)(=O)N3CCC(C)CC3)cc2N)CC1 | -24.5 |  | 
CCC/C(=C1/C(=O)CC(C)(C)C(C(=O)OC)C1=O)N1CCCC1 (stereo not given) | 22.2 | 18.4 µM [rising, partial curve, poor fit] | 
CC(=O)N1c2ccc(S(=O)(=O)NC(CC(=O)O)c3ccc(Br)cc3)cc2CC1C (stereo not given) | 24.5 | 1.03 µM [rising, full curve] | 
CCCCN(CC)C(=O)Cc1ccc(Br)cc1 | 1.1 | 6.51 µM [rising, single point] | 
Cc1ccccc1NC(=O)c1ccccc1NC(=O)c1cccs1 | 17.5 | 16.4 µM [rising, partial curve] | 
COc1ccc(COC(=O)CN2C(=O)NC3(CCCC3)C2=O)cc1F | 84.7 |  | 11.6 µM [rising, partial curve]
Cc1cccc(N2C(=O)N3[C@@H]4c5ccccc5OC[C@@H]4[C@@H](c4ccccc4)[C@]3(C)C2=O)c1 | 26.5 | 29.1 µM [rising, single point] | 
CN(c1ccccc1)c1ccc(/C=C/[N+](=O)[O-])cc1 | -74 | 29.1 µM [falling, partial curve, poor fit] | 11.6 µM [falling, partial curve]
Cc1nc2ccccc2nc1CSc1nncs1 | -20.3 |  | 
CN(C)c1nc(N)nc(-c2nc3ccccc3s2)n1 |  | 3.66 µM [rising, partial curve] | 
COC(=O)c1ccc2c(=O)n(CCN3CCOCC3)c(SCC(=O)Nc3ccc(C)cc3)nc2c1 | -19.5 | 29.1 µM [falling, single point] | 
COc1cc(CN2CCC(C(=O)N3CCN(c4ccccc4F)CC3)CC2)cc(OC)c1O | -0.419 | 3.26 µM [falling, partial curve, poor fit] | 
C=CCn1c(COc2cccc(C)c2)nnc1SCC(=O)NC(=O)NCc1ccco1 |  | 0.00517 µM [rising, full curve, poor fit] | 
O=C(/C=C/c1ccc(O)c(O)c1)OC1C(O)CC(OC(=O)/C=C/c2ccc(O)c(O)c2)(C(=O)O)CC1O (stereo not given) | 101 |  | 18.4 µM [rising, single point]
CCCCN1C(Nc2ccccc2)=NC[C@@H]1C | -5.46 | 1.84 µM [rising, partial curve] | 
C/C(=N\NC(=O)c1c(Br)c(C)nn1C)c1ccc(NC(=O)C(C)Oc2ccc(Cl)cc2C)cc1 (stereo not given) | 1.63 |  | 

In the list so far, 9 contain sulfur:
Structure (SMILES) | cell number change [%] | AC50 [1] | AC50 [2]
COc1ccc(S(=O)(=O)Cc2ccc(C(=O)N3CCN(C4CCCCC4)CC3)o2)cc1 | -13.4 | 0.092 µM [falling, full curve, poor fit] | 
CC(OC(=O)c1cccc(S(=O)(=O)Nc2ccccc2F)c1)C(=O)NCc1ccc2c(c1)OCO2 (stereo not given) |  | 10.3 µM [rising, partial curve, poor fit] | 
CC1CCN(c2ccc(S(=O)(=O)N3CCC(C)CC3)cc2N)CC1 | -24.5 |  | 
CC(=O)N1c2ccc(S(=O)(=O)NC(CC(=O)O)c3ccc(Br)cc3)cc2CC1C (stereo not given) | 24.5 | 1.03 µM [rising, full curve] | 
Cc1ccccc1NC(=O)c1ccccc1NC(=O)c1cccs1 | 17.5 | 16.4 µM [rising, partial curve] | 
Cc1nc2ccccc2nc1CSc1nncs1 | -20.3 |  | 
CN(C)c1nc(N)nc(-c2nc3ccccc3s2)n1 |  | 3.66 µM [rising, partial curve] | 
COC(=O)c1ccc2c(=O)n(CCN3CCOCC3)c(SCC(=O)Nc3ccc(C)cc3)nc2c1 | -19.5 | 29.1 µM [falling, single point] | 
C=CCn1c(COc2cccc(C)c2)nnc1SCC(=O)NC(=O)NCc1ccco1 |  | 0.00517 µM [rising, full curve, poor fit] | 

(list continues)

Structure (SMILES) | cell number change [%] | AC50 [1] | AC50 [2]
COc1ccc(C(CNC(=O)c2cccc(S(=O)(=O)N3CCOCC3)c2)N2CCCC2)cc1 (stereo not given) | -4.21 | 0.092 µM [falling, full curve, poor fit] | 
O=C(CNc1ccc(F)cc1Cl)Nc1cccc(S(=O)(=O)N2CCCCC2)c1 | -4.93 |  | 
Cc1ccc(S(=O)(=O)N2CCC(=O)N(CCOC(=O)Nc3ccc(F)cc3)CC2)cc1 |  | 8.2 µM [rising, partial curve] | 
COc1ccc(N2CCN(C(=O)CSc3nnc4n3C(C)(C)Cc3ccccc3-4)CC2)cc1 |  | 2.06 µM [rising, partial curve] | 0.461 µM [rising, partial curve, poor fit]
CC(C)(C)CN1CCNC(=O)C1CC(=O)NCc1cccc(-n2cccn2)c1 (stereo not given) | 7.04 | 0.0259 µM [rising, full curve, poor fit] | 
CN(C(=O)c1ccncc1)C1CCCCC1 | -4.99 | 0.116 µM [falling, full curve, poor fit] | 
CCC(CC)CN1CCN=C1Nc1ccccc1 | 23.8 | 6.51 µM [falling, partial curve, poor fit] | 6.51 µM [falling, partial curve, poor fit]
COC(=O)c1cn(NC(=O)c2cc([N+](=O)[O-])ccc2F)c(=O)c2ccccc12 | -2.6 |  | 
COc1ccc(OC)c2c1C(=O)c1ccccc1C2=O | -99.2 | 29.1 µM [falling, single point] | 29.1 µM [falling, single point]
CCOC(=O)c1nn(-c2ccc(OC)cc2)c(=O)c2c(N)scc12 | -22.3 | 32.6 µM [falling, single point] | 
COc1ccccc1OCc1cc(C(=O)N2CCN(C)C(c3ccccc3)C2)no1 (stereo not given) | 41.1 |  | 11.6 µM [rising, partial curve, poor fit]
COc1ccc(CSc2nnc(C)n2N)cc1Br | -2.4 | 3.26 µM [rising, single point] | 
O=C(CNC(=O)Cc1ccccc1)N=Nc1c(O)[nH]c2ccc(Br)cc12 | -89.7 |  | 29.1 µM [falling, single point]
NC(=O)CCn1c(C(=O)c2cccc([N+](=O)[O-])c2)c2ccccc2[n+]1[O-] | 16.8 |  | 
Cc1ccccc1NC(=O)/C(C#N)=C\c1ccsc1 | -0.879 | 16.4 µM [falling, partial curve, poor fit] | 
Cc1nc(N2CCN(C(=O)c3cnccn3)CC2)c2c3c(sc2n1)CC(C(C)(C)C)CC3 (stereo not given) | 14.5 | 5.62 µM [rising, single point] | 
Cc1ccc2c(c1)C(c1ccccc1)N(C(=O)c1ccc(S(=O)(=O)N3CCOCC3)cc1)CC(=O)N2 (stereo not given) | -5.25 | 6.51 µM [rising, single point] | 
CCCc1cc(Nc2ccc(C)cc2)n2ncnc2n1 | 1.65 | 4.11 µM [falling, full curve] | 
O=C(OCCN1CCOCC1)c1cccs1 | -14.6 | 0.00517 µM [falling, full curve, poor fit] | 
O=C(COc1ccc2ccccc2c1)N1CCN(c2ccccc2)CC1 | 3.62 | 29.1 µM [falling, single point] | 

Some of the entries so far, with tabs:
Structure (SMILES)	cell number change [%]	AC50 [1]	AC50 [2]
COC(=O)c1cn(NC(=O)c2cc([N+](=O)[O-])ccc2F)c(=O)c2ccccc12	-2.6		
COc1ccc(OC)c2c1C(=O)c1ccccc1C2=O	-99.2	29.1 µM [falling, single point]	29.1 µM [falling, single point]

The list continues:

Structure (SMILES) | cell number change [%] | AC50 [1] | AC50 [2]
CN(C)CC(C)(C)CNS(=O)(=O)c1ccc(Cl)s1 | -35.3 | 4.61 µM [falling, full curve] | 
CC(C)C(NC(=O)c1ccc(Cl)cc1)C(=O)NC1=NCCS1 (stereo not given) | 34 | 0.0058 µM [rising, full curve, poor fit] | 29.1 µM [rising, single point]
CCN(CC)CCNC(=O)c1cc(S(=O)(=O)N2CCc3ccccc32)cn1C | 7.49 | 2.06 µM [rising, partial curve] | 
COCCNC(=S)Nc1ccc([N+](=O)[O-])cc1C | 36 |  | 
Cc1ccc(C(=O)CSc2nnc(-c3ccco3)n2Cc2ccccc2)cc1 | 1.18 | 1.16 µM [falling, single point] | 
O=C(CN1C(=O)C2CC=CCC2C1=O)Nc1nnc(SCc2c(Cl)cccc2Cl)s1 (stereo not given) | 54.2 |  | 0.651 µM [rising, full curve]
COc1ccc(-c2nc(NCCCN(C)C)c3ccccc3n2)cc1 | -16.1 |  | 
Cc1cccc(N(CC(=O)N2CCCCCC2)S(C)(=O)=O)c1 | -5.82 | 14.6 µM [falling, single point] | 
C/C(=N\NC(=O)c1cccc(S(=O)(=O)Nc2ccccc2Cl)c1)c1ccc(-n2ccnc2)cc1 | 26.9 | 0.092 µM [rising, full curve, poor fit] | 
CSc1nc2cc(Oc3cccc(Cl)c3Cl)c(Cl)cc2[nH]1 | -55.8 | 16.4 µM [falling, single point] | 16.4 µM [falling, single point]
CCN1C(=O)CC(N2CCOCC2)C1=O (stereo not given) | -101 | 29.1 µM [falling, single point] | 25.9 µM [falling, partial curve]
Cc1ccc(NC(=O)CSc2ccc(S(=O)(=O)N3CCCC3)cn2)cc1F | 44.7 | 4.11 µM [falling, single point] | 29.1 µM [rising, single point]
CC(=O)Nc1cccc(NC(=O)CCn2cnc3cc(C)c(C)cc32)c1 | 33.9 | 1.3 µM [rising, full curve, poor fit] | 0.00461 µM [rising, full curve, poor fit]
CCOC(=O)c1ccc(NC(=S)NCCc2ccc(F)cc2)cc1 | -15 | 16.4 µM [falling, single point] | 
CCOC(=O)Cc1csc(NC(=O)CCCCCN2C(=O)c3ccccc3C2=O)n1 | -40.4 |  | 29.1 µM [falling, single point]
COc1ccccc1C(C#N)c1cccc(Cl)n1 (stereo not given) | 13.8 | 6.51 µM [rising, single point] | 5.8 µM [rising, single point]
CS(=O)(=O)N1CCN(C(=S)NCc2ccc(Cl)cc2)CC1 | 12.1 |  | 3.26 µM [falling, single point]
CC(CC(=O)N1CCN(c2ccccc2)CC1)S(=O)(=O)c1ccc2c(c1)NC(=O)CO2 (stereo not given) | -41.6 |  | 32.6 µM [falling, single point]
COC(=O)C[N+](C)(C)C/C=C\c1ccccc1 | 4.19 | 0.259 µM [falling, full curve, poor fit] | 
